In PMC7296103, “Live Cell Imaging Demonstrates Multiple Routes Toward a STAT1 Gain-of-Function Phenotype” (Frontiers in Immunology, 2020):
Residue numbers refer to the chain shown, from its start. Names may count otherwise. No constants are given. Whether binding was seen depends on the method and setting. Some entries that bind do so weakly or less than the wild type. Each block holds one binder with its values, some of them ahead of it.

Experiments:
STAT1-GFP E411A = STAT1-GFP E411A (UniProt P42224); assay: raster image correlation spectroscopy (RICS), molecular brightness; living U3A cells after IFNγ (1 U/μl, 1 h), 37°C; cytoplasm; brightness as fold of cytoplasmic STAT1 WT
STAT1-GFP R321S = STAT1-GFP R321S (UniProt P42224); assay: raster image correlation spectroscopy (RICS), molecular brightness; living U3A cells, unstimulated, 37°C; cytoplasm and nucleus; brightness of STAT1-GFP compared with monomeric GFP
STAT1-GFP Y701A = STAT1-GFP Y701A (UniProt P42224); assay: raster image correlation spectroscopy (RICS), molecular brightness; living U3A cells after IFNγ (1 U/μl, 1 h), 37°C; cytoplasm; brightness as fold of cytoplasmic STAT1 WT
STAT1-GFP T419R = STAT1-GFP T419R (UniProt P42224); assay: raster image correlation spectroscopy (RICS), molecular brightness; living U3A cells, unstimulated, 37°C; cytoplasm and nucleus; brightness of STAT1-GFP compared with monomeric GFP
STAT1-GFP N574I = STAT1-GFP N574I (UniProt P42224); assay: as above
STAT1-GFP R274W [1] = molecular target: STAT1-GFP R274W (UniProt P42224); assay: as above
STAT1-GFP R274W [2] = molecular target: STAT1-GFP R274W (UniProt P42224); assay: raster image correlation spectroscopy (RICS), molecular brightness; living U3A cells after IFNγ (1 U/μl, 1 h), 37°C; cytoplasm; brightness as fold of cytoplasmic STAT1 WT

binding (STAT1-GFP E411A): binds
B1: STAT1-GFP E411A (natural protein, UniProt P42224 1-750, looked up)
chain: MSQWYELQQLDSKFLEQVHQLYDDSFPMEIRQYLAQWLEKQDWEHAANDVSFATIRFHDLLSQLDDQYSRFSLENNFLLQHNIRKSKRNLQDNFQEDPIQMSMIIYSCLKEERKILENAQRFNQAQSGNIQSTVMLDKQKELDSKVRNVKDKVMCIEHEIKSLEDLQDEYDFKCKTLQNREHETNGVAKSDQKQEQLLLKKMYLMLDNKRKEVVHKIIELLNVTELTQNALINDELVEWKRRQQSACIGGPPNACLDQLQNWFTIVAESLQQVRQQLKKLEELEQKYTYEHDPITKNKQVLWDRTFSLFQQLIQSSFVVERQPCMPTHPQRPLVLKTGVQFTVKLRLLVKLQELNYNLKVKVLFDKDVNERNTVKGFRKFNILGTHTKVMNMEESTNGSLAAEFRHLQLKAQKNAGTRTNEGPLIVTEELHSLSFETQLCQPGLVIDLETTSLPVVVISNVSQLPSGWASILWYNMLVAEPRNLSFFLTPPCARWAQLSEVLSWQFSSVTKRGLNVDQLNMLGEKLLGPNASPDGLIPWTRFCKENINDKNFPFWLWIESILELIKKHLLPLWNDGCIMGFISKERERALLKDQQPGTFLLRFSESSREGAITFTWVERSQNGGEPDFHAVEPYTKKELSAVTFPDIIRNYKVMAAENIPENPLKYLYPNIDKDHAFGKYYSRPKEAPEPMELDGPKGTGYIKTELISVSEVHPSRLQTTDNLLPMSPEEFDEVSRIVGSVEFDSMMNTV
notes: Artificial mutation, not reported in patients; also called STAT1E411A-eGFP; source: measured in living cells; not shown: eGFP, C-terminal, kept

binding (STAT1-GFP R321S): binds
B2: STAT1-GFP R321S (natural protein, UniProt P42224 1-750, looked up)
chain: B1 chain with R321S, A411E
notes: Mutation reported in patients; also called STAT1R321S-eGFP; source: measured in living cells; not shown: eGFP, C-terminal, kept

binding (STAT1-GFP Y701A): binds
B3: STAT1-GFP Y701A (natural protein, UniProt P42224 1-750, looked up)
chain: B1 chain with A411E, Y701A
notes: Non-clinical control; also called STAT1Y701A-eGFP; source: measured in living cells; not shown: eGFP, C-terminal, kept

binding (STAT1-GFP T419R): binds
B4: STAT1-GFP T419R (natural protein, UniProt P42224 1-750, looked up)
chain: B1 chain with A411E, T419R
notes: Mutation reported in patients; also called STAT1T419R-eGFP; source: measured in living cells; not shown: eGFP, C-terminal, kept

binding (STAT1-GFP N574I): binds
B5: STAT1-GFP N574I (natural protein, UniProt P42224 1-750, looked up)
chain: B1 chain with A411E, N574I
notes: STAT1 with the patient gain-of-function mutation N574I (linker domain); Mutation reported in patients; also called STAT1N574I-eGFP; N571I (as printed in some places); source: measured in living cells; not shown: eGFP, C-terminal, kept

binding (STAT1-GFP R274W [1]): binds
binding (STAT1-GFP R274W [2]): binds
B6: STAT1-GFP R274W (natural protein, UniProt P42224 1-750, looked up)
chain: B1 chain with R274W, A411E
notes: STAT1 with the patient gain-of-function mutation R274W (coiled-coil domain); Mutation reported in patients; also called STAT1R274W-eGFP; source: measured in living cells; not shown: eGFP, C-terminal, kept
